According to the supplement of paper PMC10849652:
Some of the results follow.

By UniProt entry, the sequences of proteins in these tests, tags left out. Where a name states a change or a piece, a line headed by the entry shows the natural chain unless it says otherwise.
UniProt Q12788: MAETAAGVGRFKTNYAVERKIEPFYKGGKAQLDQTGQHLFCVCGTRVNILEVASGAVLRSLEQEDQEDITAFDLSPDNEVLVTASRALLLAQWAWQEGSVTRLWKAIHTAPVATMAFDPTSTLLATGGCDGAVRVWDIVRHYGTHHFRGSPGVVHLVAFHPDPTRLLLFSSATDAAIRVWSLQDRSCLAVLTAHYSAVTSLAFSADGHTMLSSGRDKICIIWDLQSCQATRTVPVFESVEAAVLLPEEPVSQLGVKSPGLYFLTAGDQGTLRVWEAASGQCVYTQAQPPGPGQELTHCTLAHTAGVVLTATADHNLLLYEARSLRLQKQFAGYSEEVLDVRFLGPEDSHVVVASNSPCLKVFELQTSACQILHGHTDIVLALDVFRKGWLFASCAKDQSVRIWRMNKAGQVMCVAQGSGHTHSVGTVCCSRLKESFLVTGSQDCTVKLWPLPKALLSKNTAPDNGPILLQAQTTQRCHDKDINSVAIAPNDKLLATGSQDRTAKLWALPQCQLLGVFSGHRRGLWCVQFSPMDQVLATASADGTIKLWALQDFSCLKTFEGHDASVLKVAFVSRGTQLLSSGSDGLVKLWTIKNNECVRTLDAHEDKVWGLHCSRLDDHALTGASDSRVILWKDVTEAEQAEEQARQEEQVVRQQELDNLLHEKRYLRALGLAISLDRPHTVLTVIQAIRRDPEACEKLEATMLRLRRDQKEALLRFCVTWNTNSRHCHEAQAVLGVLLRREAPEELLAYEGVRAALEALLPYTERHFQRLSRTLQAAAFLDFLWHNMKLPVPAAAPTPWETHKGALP
UniProt Q8NFU7: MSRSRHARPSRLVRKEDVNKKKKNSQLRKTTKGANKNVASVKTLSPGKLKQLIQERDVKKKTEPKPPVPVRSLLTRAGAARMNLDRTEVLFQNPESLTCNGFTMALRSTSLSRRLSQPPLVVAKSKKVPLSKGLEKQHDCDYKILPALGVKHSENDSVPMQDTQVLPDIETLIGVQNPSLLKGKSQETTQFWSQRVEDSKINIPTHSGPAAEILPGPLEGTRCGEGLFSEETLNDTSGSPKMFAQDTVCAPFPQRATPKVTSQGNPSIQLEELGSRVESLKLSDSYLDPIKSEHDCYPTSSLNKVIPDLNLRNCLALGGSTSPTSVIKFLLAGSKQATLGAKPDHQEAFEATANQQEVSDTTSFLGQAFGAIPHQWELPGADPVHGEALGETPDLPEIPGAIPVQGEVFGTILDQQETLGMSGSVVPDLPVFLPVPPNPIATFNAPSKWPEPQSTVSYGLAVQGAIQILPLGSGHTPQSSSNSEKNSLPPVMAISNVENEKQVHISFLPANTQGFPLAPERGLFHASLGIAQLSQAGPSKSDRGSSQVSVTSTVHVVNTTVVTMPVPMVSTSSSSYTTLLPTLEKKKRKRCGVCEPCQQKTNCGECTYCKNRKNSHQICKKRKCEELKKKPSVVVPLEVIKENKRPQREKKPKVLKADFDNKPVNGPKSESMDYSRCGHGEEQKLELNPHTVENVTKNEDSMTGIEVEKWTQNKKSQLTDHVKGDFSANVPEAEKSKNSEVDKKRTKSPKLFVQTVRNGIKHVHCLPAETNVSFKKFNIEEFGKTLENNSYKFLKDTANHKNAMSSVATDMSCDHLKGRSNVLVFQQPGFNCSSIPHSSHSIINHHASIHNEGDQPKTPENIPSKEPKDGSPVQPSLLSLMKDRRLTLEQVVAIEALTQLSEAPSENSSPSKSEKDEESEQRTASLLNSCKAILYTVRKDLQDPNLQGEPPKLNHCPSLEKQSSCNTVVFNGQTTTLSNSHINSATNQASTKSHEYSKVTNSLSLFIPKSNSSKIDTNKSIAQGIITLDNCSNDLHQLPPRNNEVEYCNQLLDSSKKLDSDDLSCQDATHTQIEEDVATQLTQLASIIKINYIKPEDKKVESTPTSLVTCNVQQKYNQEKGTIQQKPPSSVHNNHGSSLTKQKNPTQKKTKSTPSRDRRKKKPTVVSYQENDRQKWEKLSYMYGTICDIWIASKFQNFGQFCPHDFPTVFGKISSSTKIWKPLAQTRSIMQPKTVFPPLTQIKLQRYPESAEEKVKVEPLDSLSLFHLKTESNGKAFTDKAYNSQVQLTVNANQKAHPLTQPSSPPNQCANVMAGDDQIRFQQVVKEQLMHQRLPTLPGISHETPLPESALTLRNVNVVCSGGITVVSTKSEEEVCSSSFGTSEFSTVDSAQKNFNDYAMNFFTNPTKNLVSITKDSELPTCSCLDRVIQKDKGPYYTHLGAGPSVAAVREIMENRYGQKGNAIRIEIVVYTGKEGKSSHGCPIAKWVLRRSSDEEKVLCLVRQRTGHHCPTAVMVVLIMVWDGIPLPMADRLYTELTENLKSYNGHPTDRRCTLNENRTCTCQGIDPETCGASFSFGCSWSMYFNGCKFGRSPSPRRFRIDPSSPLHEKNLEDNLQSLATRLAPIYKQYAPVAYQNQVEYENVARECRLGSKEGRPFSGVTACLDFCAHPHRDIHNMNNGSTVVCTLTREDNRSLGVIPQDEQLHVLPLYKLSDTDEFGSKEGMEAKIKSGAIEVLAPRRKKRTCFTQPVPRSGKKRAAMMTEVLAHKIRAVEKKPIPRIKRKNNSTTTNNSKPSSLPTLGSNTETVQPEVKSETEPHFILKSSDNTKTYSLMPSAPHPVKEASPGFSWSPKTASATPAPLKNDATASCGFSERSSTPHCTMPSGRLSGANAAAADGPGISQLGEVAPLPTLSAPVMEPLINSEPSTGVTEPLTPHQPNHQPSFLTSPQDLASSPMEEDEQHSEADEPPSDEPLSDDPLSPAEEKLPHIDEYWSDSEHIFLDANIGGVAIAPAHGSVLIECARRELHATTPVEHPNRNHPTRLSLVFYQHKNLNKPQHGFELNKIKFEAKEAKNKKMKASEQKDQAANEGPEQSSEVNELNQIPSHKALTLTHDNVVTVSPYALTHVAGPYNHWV
UniProt Q9H7E2: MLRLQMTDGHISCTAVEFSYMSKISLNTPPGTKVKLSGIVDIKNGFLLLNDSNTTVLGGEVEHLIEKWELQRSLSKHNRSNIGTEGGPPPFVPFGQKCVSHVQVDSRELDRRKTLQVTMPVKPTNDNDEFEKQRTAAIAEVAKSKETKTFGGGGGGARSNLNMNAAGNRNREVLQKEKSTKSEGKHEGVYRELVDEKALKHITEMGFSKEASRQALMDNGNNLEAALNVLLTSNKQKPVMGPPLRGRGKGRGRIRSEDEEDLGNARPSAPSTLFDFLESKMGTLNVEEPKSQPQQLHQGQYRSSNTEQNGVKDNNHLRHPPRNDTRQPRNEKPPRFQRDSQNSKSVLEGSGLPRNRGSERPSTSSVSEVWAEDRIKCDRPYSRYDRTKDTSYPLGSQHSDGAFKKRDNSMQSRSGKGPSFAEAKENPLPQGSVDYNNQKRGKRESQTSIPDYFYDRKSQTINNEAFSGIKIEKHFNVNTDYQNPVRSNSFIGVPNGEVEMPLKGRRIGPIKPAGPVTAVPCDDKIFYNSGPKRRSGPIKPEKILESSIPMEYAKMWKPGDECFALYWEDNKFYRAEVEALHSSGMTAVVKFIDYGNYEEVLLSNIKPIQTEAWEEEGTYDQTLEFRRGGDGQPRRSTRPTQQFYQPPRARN
UniProt O75347: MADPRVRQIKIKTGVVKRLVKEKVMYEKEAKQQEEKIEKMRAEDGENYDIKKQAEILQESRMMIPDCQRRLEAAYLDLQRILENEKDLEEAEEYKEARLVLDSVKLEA
UniProt Q7Z7C8, whole entry, looked up: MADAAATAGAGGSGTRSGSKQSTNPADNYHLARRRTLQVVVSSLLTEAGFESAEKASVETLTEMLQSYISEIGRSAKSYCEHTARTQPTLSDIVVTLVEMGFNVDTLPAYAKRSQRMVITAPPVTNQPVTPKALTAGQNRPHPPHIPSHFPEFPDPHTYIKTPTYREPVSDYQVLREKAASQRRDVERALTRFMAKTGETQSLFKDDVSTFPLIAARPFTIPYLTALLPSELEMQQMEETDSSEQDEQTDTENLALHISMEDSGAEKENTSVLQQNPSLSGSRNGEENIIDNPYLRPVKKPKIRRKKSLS
UniProt P01137, whole entry, looked up: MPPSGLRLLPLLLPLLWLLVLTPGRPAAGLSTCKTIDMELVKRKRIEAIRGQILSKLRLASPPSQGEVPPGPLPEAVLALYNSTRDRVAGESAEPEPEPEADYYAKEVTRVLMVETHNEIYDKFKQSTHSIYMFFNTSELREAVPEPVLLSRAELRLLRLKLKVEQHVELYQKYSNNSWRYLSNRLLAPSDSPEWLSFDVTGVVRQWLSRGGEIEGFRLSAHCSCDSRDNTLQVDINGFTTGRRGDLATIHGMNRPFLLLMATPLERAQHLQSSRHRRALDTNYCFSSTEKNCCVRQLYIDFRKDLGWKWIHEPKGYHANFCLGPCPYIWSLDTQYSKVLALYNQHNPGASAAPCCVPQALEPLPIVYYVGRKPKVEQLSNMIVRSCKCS
UniProt P62380: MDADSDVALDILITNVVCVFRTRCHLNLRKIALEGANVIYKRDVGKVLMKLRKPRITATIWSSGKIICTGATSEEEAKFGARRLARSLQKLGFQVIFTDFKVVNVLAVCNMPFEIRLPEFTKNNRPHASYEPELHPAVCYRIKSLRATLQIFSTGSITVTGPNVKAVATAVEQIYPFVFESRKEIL
UniProt Q9BZK7: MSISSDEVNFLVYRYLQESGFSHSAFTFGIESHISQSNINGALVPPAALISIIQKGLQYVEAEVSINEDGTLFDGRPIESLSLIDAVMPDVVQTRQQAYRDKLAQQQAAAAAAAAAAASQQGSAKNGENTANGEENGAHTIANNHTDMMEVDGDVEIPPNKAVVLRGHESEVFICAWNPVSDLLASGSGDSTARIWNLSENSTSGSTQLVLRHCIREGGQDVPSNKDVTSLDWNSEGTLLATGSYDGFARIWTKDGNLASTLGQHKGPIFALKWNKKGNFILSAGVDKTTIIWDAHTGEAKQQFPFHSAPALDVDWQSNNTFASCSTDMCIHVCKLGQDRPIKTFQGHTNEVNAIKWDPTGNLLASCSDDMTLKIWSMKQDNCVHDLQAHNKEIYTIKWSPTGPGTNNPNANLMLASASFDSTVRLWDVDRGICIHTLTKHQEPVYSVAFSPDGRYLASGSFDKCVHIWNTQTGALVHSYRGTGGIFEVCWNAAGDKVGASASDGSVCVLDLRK
UniProt Q8WVM0: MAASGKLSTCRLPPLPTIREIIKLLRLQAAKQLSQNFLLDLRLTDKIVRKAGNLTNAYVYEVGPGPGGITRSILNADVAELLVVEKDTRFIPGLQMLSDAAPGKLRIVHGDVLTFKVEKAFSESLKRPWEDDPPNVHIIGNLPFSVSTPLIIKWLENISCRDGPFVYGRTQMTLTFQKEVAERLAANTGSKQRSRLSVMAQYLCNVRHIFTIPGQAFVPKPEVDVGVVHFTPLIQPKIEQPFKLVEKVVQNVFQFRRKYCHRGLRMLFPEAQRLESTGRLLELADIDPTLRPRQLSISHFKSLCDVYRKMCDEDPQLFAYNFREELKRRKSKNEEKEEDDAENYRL
UniProt Q9NVG8: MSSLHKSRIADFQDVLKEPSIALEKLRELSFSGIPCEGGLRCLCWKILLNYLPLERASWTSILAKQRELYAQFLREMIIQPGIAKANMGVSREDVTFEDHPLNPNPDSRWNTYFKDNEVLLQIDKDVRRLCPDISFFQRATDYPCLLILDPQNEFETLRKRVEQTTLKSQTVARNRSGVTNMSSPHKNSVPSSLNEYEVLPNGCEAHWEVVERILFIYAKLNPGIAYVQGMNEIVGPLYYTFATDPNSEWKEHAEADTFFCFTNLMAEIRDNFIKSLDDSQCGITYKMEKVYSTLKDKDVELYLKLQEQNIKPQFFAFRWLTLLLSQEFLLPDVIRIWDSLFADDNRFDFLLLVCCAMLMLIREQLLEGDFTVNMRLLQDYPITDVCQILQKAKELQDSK
UniProt P26639: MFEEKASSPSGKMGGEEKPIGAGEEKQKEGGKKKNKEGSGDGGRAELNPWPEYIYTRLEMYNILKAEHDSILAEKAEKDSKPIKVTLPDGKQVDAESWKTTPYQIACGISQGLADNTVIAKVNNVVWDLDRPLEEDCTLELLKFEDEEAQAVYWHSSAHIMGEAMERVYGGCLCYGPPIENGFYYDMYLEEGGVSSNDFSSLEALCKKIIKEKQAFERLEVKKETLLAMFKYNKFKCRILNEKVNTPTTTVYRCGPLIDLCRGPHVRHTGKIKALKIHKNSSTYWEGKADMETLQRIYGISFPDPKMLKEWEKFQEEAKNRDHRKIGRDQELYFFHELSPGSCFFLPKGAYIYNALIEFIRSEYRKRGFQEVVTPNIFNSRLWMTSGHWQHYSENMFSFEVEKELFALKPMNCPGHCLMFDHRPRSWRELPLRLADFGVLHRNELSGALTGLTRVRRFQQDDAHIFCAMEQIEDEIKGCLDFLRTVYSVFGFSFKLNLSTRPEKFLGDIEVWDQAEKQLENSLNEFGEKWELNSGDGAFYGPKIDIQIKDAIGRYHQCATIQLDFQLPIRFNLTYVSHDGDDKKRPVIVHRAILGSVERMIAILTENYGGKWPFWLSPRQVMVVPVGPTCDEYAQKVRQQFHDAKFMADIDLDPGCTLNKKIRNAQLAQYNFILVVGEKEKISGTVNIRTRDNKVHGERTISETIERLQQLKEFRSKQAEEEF

Key:
Test in all cases: log2 fold change, soluble protein after heating vs DMSO (PISA); higher = thermal stabilisation; K562 lysate, 10 uM; active = over 0.2 and 3.5 SD of the protein, either way, in both replicates (recomputed)
erlotinib = compound: C#Cc1cccc(Nc2ncnc3cc(OCCOC)c(OCCOC)cc23)c1 [erlotinib]
Method in brief: (§1)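 Following dounce homogenisation of K562 pellets in PBS pH 7.4 with 1 mM MgCl2, crude extract at 1 mg/mL protein was incubated for 30 min with 10 μM compound. Aliquots were then heated for 3 min over 48°C-58°C and pooled, NP-40 was added to 0.5% at 4°C, and soluble protein was recovered as the supernatant at 21,000xg for 90 min. Channel-sum-equalised TMTpro 16plex LC-MS/MS quantified this protein. Each value, from duplicates, is a log-two fold change in thermal stability relative to solvent controls.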

[1] = compound: C/C(=N\NC(=O)C1=CC(=CC=C1)S(=O)(=O)N2CCOCC2)/C3=C(C=CC(=C3)Cl)O
Method in brief: as §1

[2] = compound: C1=CC(=CC=C1C2=NC3=C(N2)C=C(C=C3)C(=O)N)OC4=CC=C(C=C4)Cl
Method in brief: as §1

[3] = compound: C1=CC2=C(C=CC(=C2)/C=C\3/C(=O)NC(=NCC4=CC=CS4)S3)N=C1
Method in brief: as §1

[4] = compound: C1=CC2=NC=CN=C2C=C1/C=C/3\C(=O)NC(=O)S3
Method in brief: as §1

[5] = compound: C1=CC=C(C=C1)C2=NC(=C(N2)C3=CC=NC=C3)C4=CC(=C(C=C4)Cl)O
Method in brief: as §1

[6] = compound: C1=CC=C2C(=C1)C3=NNC4=CC=CC(=C43)C2=O
Method in brief: as §1

[7] = compound: C1CCN(C1)C(=O)NC2=CC=CC(=C2)NC3=NC=C(C(=N3)NCCC4=CN=CN4)Br
Method in brief: as §1

[8] = compound: C1CN(CCC1(CC2=CC=C(C=C2)Cl)N)C3=NC=NC4=C3C=CN4
Method in brief: as §1

IRAK-1-4 Inhibitor I = compound: C1COCCN1CCN2C3=CC=CC=C3N=C2NC(=O)C4=CC(=CC=C4)[N+](=O)[O-] [IRAK-1-4 Inhibitor I]
Method in brief: as §1

ibrutinib = compound: C=CC(=O)N1CCC[C@@H](n2nc(-c3ccc(Oc4ccccc4)cc3)c3c(N)ncnc32)C1 [ibrutinib]
Method in brief: as §1

[9] = compound: CC(=O)c1cnc2ccc(-c3cc(Cl)c(O)c(Cl)c3)nc2c1N[C@H]1CC[C@H](CN(C)C)CC1
Method in brief: as §1

ralimetinib = compound: CC(C)(C)Cn1c(N)nc2ccc(-c3[nH]c(C(C)(C)C)nc3-c3ccc(F)cc3)nc21 [ralimetinib]
Method in brief: as §1

[10] = compound: CC(C)(O)CC(=O)NCCn1ccc2ncnc(Nc3ccc(Oc4cccc(C(F)(F)F)c4)c(Cl)c3)c21
Method in brief: as §1

[11] = compound: CC(C)C1=C2N=C(C=C(N2N=C1)NCC3=CC=CC=C3)NCCCCCCN
Method in brief: as §1

[12] = compound: CC1=C(C(CC(=O)N1)C2=CC=C(C=C2)C(F)(F)F)C(=O)NC3=C(C=C4C(=C3)C=NN4)F
Method in brief: as §1

[13] = compound: CC1=C(C2=C(C=C1)C(=O)C3=CC=CC=C3N2CCCN)C
Method in brief: as §1

[14] = compound: CC1=C(C=C(C=C1)NC(=O)C2=CC(=CC=C2)C(C)(C)C#N)NC3=CC4=C(C=C3)N=CN(C4=O)C
Method in brief: as §1

[15] = compound: CC1=C(C=C(C=C1)NC(=O)C2=CC(=CC=C2)N(C)C)NC(=O)C3=CC=C(C=C3)O
Method in brief: as §1

[16] = compound: CC1=CC=C(C=C1)SC2=C3C=C(SC3=CN=C2)C(=O)N
Method in brief: as §1

Measured: log2 fold change

TBL3 (UniProt Q12788)
inactive: erlotinib 0.082 | [1] -0.001 | [2] -0.071 | [3] 0.037 | [4] 0.012 | [5] 0.017 | [6] 0.043 | [7] 0.074 | [8] -0.016 | IRAK-1-4 Inhibitor I 0.01 | ibrutinib -0.006 | [9] -0.016 | ralimetinib 0.027 | [10] 0.001 | [11] 0.026 | [12] 0.013 | [13] -0.017 | [14] 0.027 | [15] 0.046 | [16] 0.008

TET1 (UniProt Q8NFU7)
inactive: erlotinib 0.164 | [1] 0.062 | [2] 0.178 | [3] 0.027 | [4] -0.089 | [5] 0.115 | [6] -0.164 | [7] -0.064 | [8] 0.171 | IRAK-1-4 Inhibitor I 0.209 | ibrutinib -0.011 | [9] -0.238 | ralimetinib -0.157 | [10] -0.342 | [11] 0.101 | [12] -0.031 | [13] -0.173 | [14] 0.285 | [15] -0.037 | [16] -0.059

TDRD3 isoform 3 (UniProt Q9H7E2)
inactive: erlotinib 0.051 | [1] -0.029 | [2] -0.019 | [3] 0.086 | [4] 0.005 | [5] 0.257 | [6] -0.085 | [7] -0.059 | [8] 0 | IRAK-1-4 Inhibitor I 0.051 | ibrutinib -0.03 | [9] 0.009 | ralimetinib -0.094 | [10] 0.01 | [11] -0.018 | [12] -0.073 | [13] -0.004 | [14] 0 | [15] -0.102 | [16] 0.026

TEX264 (UniProt Q9Y6I9)
inactive: erlotinib -0.047 | [1] -0.142 | [2] -0.048 | [3] 0.162 | [4] 0.017 | [5] 0.263 | [6] 0.228 | [7] -0.009 | [8] -0.131 | IRAK-1-4 Inhibitor I 0.029 | ibrutinib -0.033 | [9] -0.006 | ralimetinib -0.028 | [10] 0.013 | [11] 0.439 | [12] -0.026 | [13] -0.011 | [14] 0.05 | [15] -0.037 | [16] -0.005

TBCA (UniProt O75347)
inactive: erlotinib -0.093 | [1] -0.048 | [2] -0.084 | [3] -0.031 | [4] 0.022 | [5] -0.021 | [6] 0.016 | [7] 0.043 | [8] -0.044 | IRAK-1-4 Inhibitor I -0.014 | ibrutinib 0.02 | [9] 0.043 | ralimetinib 0.032 | [10] 0.035 | [11] -0.042 | [12] -0.063 | [13] 0.083 | [14] -0.033 | [15] -0.01 | [16] -0.001

TAF8 isoform 2 (UniProt Q7Z7C8)
inactive: erlotinib 0 | [1] -0.033 | [2] 0.006 | [3] -0.009 | [4] -0.031 | [5] 0.028 | [6] 0.014 | [7] -0.124 | [8] 0.047 | IRAK-1-4 Inhibitor I -0.016 | ibrutinib 0.012 | [9] 0.007 | ralimetinib -0.031 | [10] -0.039 | [11] -0.119 | [12] 0.05 | [13] -0.062 | [14] -0.004 | [15] 0.046 | [16] -0.049

TFR2 (UniProt Q9UP52)
inactive: erlotinib -0.019 | [1] -0.011 | [2] 0.032 | [3] -0.014 | [4] -0.022 | [5] 0.004 | [6] -0.011 | [7] -0.023 | [8] -0.022 | IRAK-1-4 Inhibitor I 0.023 | ibrutinib 0.031 | [9] 0.003 | ralimetinib 0.003 | [10] -0.025 | [11] -0.038 | [12] 0.007 | [13] -0.018 | [14] -0.01 | [15] -0.015 | [16] -0.026

TCOF1 isoform 4 (UniProt Q13428)
inactive: erlotinib 0 | [1] 0.026 | [2] 0.034 | [3] -0.013 | [4] -0.069 | [5] 0.012 | [6] 0 | [7] 0.001 | [8] 0.003 | IRAK-1-4 Inhibitor I 0.01 | ibrutinib 0.006 | [9] -0.017 | ralimetinib -0.015 | [10] -0.018 | [11] -0.003 | [12] -0.018 | [13] -0.021 | [14] 0.026 | [15] 0 | [16] -0.014

TCEA1 (UniProt P23193)
inactive: erlotinib -0.023 | [1] 0.016 | [2] 0.032 | [3] -0.007 | [4] -0.018 | [5] 0.015 | [6] 0.043 | [7] 0.028 | [8] -0.017 | IRAK-1-4 Inhibitor I -0.017 | ibrutinib 0.003 | [9] 0.001 | ralimetinib -0.023 | [10] 0.023 | [11] -0.024 | [12] -0.003 | [13] -0.001 | [14] -0.011 | [15] -0.008 | [16] -0.015

TGFB1 (UniProt P01137)
inactive: erlotinib -0.024 | [1] 0.014 | [2] 0.035 | [3] 0 | [4] -0.005 | [5] -0.017 | [6] 0.013 | [7] -0.008 | [8] 0.025 | IRAK-1-4 Inhibitor I -0.009 | ibrutinib 0.001 | [9] -0.013 | ralimetinib 0.012 | [10] -0.046 | [11] -0.015 | [12] 0.05 | [13] -0.035 | [14] -0.042 | [15] -0.039 | [16] -0.014

Three consecutive entries from above:
TBL3 (UniProt Q12788)
inactive: erlotinib 0.082 | [1] -0.001 | [2] -0.071 | [3] 0.037 | [4] 0.012 | [5] 0.017 | [6] 0.043 | [7] 0.074 | [8] -0.016 | IRAK-1-4 Inhibitor I 0.01 | ibrutinib -0.006 | [9] -0.016 | ralimetinib 0.027 | [10] 0.001 | [11] 0.026 | [12] 0.013 | [13] -0.017 | [14] 0.027 | [15] 0.046 | [16] 0.008

TET1 (UniProt Q8NFU7)
inactive: erlotinib 0.164 | [1] 0.062 | [2] 0.178 | [3] 0.027 | [4] -0.089 | [5] 0.115 | [6] -0.164 | [7] -0.064 | [8] 0.171 | IRAK-1-4 Inhibitor I 0.209 | ibrutinib -0.011 | [9] -0.238 | ralimetinib -0.157 | [10] -0.342 | [11] 0.101 | [12] -0.031 | [13] -0.173 | [14] 0.285 | [15] -0.037 | [16] -0.059

TDRD3 isoform 3 (UniProt Q9H7E2)
inactive: erlotinib 0.051 | [1] -0.029 | [2] -0.019 | [3] 0.086 | [4] 0.005 | [5] 0.257 | [6] -0.085 | [7] -0.059 | [8] 0 | IRAK-1-4 Inhibitor I 0.051 | ibrutinib -0.03 | [9] 0.009 | ralimetinib -0.094 | [10] 0.01 | [11] -0.018 | [12] -0.073 | [13] -0.004 | [14] 0 | [15] -0.102 | [16] 0.026

Remaining list, next part

TBPL1 (UniProt P62380)
inactive: erlotinib -0.048 | [1] -0.124 | [2] -0.036 | [3] -0.028 | [4] -0.015 | [5] 0.001 | [6] 0.057 | [7] 0.114 | [8] -0.004 | IRAK-1-4 Inhibitor I -0.017 | ibrutinib 0.049 | [9] 0.001 | ralimetinib 0.043 | [10] -0.019 | [11] 0.051 | [12] 0.01 | [13] 0.056 | [14] -0.023 | [15] -0.028 | [16] 0.035

TBCB (UniProt Q99426)
inactive: erlotinib -0.011 | [1] -0.026 | [2] 0.023 | [3] 0.01 | [4] -0.017 | [5] -0.014 | [6] -0.024 | [7] -0.002 | [8] 0.035 | IRAK-1-4 Inhibitor I 0.007 | ibrutinib -0.052 | [9] 0.019 | ralimetinib 0.017 | [10] 0.003 | [11] -0.01 | [12] 0.008 | [13] -0.002 | [14] 0.047 | [15] -0.008 | [16] -0.001

TBL1XR1 (UniProt Q9BZK7)
inactive: erlotinib 0.011 | [1] -0.011 | [2] 0.007 | [3] 0.009 | [4] -0.052 | [5] 0.022 | [6] -0.016 | [7] -0.01 | [8] 0.031 | IRAK-1-4 Inhibitor I 0.003 | ibrutinib 0.029 | [9] 0.004 | ralimetinib 0.03 | [10] -0.064 | [11] 0.005 | [12] -0.019 | [13] 0.012 | [14] -0.007 | [15] -0.027 | [16] -0.023

TFB1M (UniProt Q8WVM0)
inactive: erlotinib 0.011 | [1] 0.009 | [2] 0.01 | [3] 0.013 | [4] -0.095 | [5] -0.041 | [6] -0.061 | [7] -0.006 | [8] 0.05 | IRAK-1-4 Inhibitor I 0.005 | ibrutinib 0.014 | [9] 0.002 | ralimetinib 0.041 | [10] -0.021 | [11] -0.016 | [12] 0.006 | [13] -0.02 | [14] -0.088 | [15] 0.019 | [16] -0.005

TBC1D13 (UniProt Q9NVG8)
inactive: erlotinib 0 | [1] 0.014 | [2] 0.018 | [3] 0.012 | [4] -0.001 | [5] 0 | [6] 0.015 | [7] -0.011 | [8] 0.024 | IRAK-1-4 Inhibitor I 0.015 | ibrutinib 0.012 | [9] -0.007 | ralimetinib 0.045 | [10] -0.024 | [11] -0.005 | [12] -0.014 | [13] -0.029 | [14] 0.011 | [15] 0 | [16] -0.003

TARS1 (UniProt P26639)
inactive: erlotinib -0.022 | [1] -0.013 | [2] -0.012 | [3] 0.021 | [4] -0.008 | [5] 0.004 | [6] 0.013 | [7] -0.005 | [8] 0.005 | IRAK-1-4 Inhibitor I -0.003 | ibrutinib 0.002 | [9] -0.011 | ralimetinib 0.007 | [10] 0.033 | [11] -0.011 | [12] -0.007 | [13] 0.007 | [14] -0.015 | [15] -0.016 | [16] 0.01
